Source: PubChem BioAssay AID1259308 (NCATS, 2017)
Shown is an unselected part of about 59,000 reagents tested. Over the whole deposit, about 1,510 (2.6%) got an active call. 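Calls use total luciferase alone and ignore viability, so some active siRNAs may act by altering cell number.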 Not all columns of the deposit are shown.

- Screen: 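Genes whose loss raises luciferase production in HEK293 cells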 (primary screen)
- System: human HEK293 embryonic kidney cells stably expressing firefly luciferase (HEK-CMV-Luc2-Hygro)
- Reagents: single siRNA against human genes, 0.8 pmol siRNA per well
- Time to read-out: 72 h
- Read-out: 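Reporter luminescence and viable-cell signal on separate replicate plates, given as percent of non-targeting control and median/MAD z-scores, plus per-cell luciferase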
- Scale: total luciferase, z-score and total luciferase, % of control: higher = more reporter protein produced
- Active means: 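An siRNA counts as active if its total luciferase robust z-score exceeds 3; genes with two or more such siRNAs out of three were retested with fresh siRNAs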
- Meaning of the calls: active = raised luciferase; inactive = no rise

What is on record for GARIN1B [SID160752603]?
total luciferase, z-score: 0.672; total luciferase, % of control: 95.3; activity call: inactive

With GARIN1B [SID160752604], what was measured?
total luciferase, z-score: -0.0254; total luciferase, % of control: 81.4; activity call: inactive

For GARIN1B [SID160752605], how do the results read?
total luciferase, z-score: 0.386; total luciferase, % of control: 89.6; activity call: inactive

Which result is listed for MAMSTR [SID160725010]?
total luciferase, z-score: -0.894; total luciferase, % of control: 64.1; activity call: inactive

For MAMSTR [SID160763282], how do the results read?
total luciferase, z-score: 3.53; total luciferase, % of control: 152; activity call: active

For MAMSTR [SID160763283], how do the results read?
total luciferase, z-score: -0.959; total luciferase, % of control: 62.8; activity call: inactive

What is on record for ARFIP2 [SID160736757]?
total luciferase, z-score: -0.328; total luciferase, % of control: 75.4; activity call: inactive

Which result is listed for ARFIP2 [SID160736758]?
total luciferase, z-score: 0.498; total luciferase, % of control: 91.8; activity call: inactive

For ARFIP2 [SID160736759], what does the deposit list?
total luciferase, z-score: -0.834; total luciferase, % of control: 65.3; activity call: inactive

With RCSD1 [SID160754222], how do the results read?
total luciferase, z-score: -1.56; total luciferase, % of control: 50.9; activity call: inactive

For RCSD1 [SID160754223], how do the results read?
total luciferase, z-score: 2.48; total luciferase, % of control: 131; activity call: inactive

For RCSD1 [SID160754225], what was measured?
total luciferase, z-score: -0.817; total luciferase, % of control: 65.6; activity call: inactive

What did the screen give for PRKG2 [SID160714973]?
total luciferase, z-score: -1.08; total luciferase, % of control: 60.5; activity call: inactive

For PRKG2 [SID160714974], what was measured?
total luciferase, z-score: 0.11; total luciferase, % of control: 84.1; activity call: inactive

For PRKG2 [SID160714975], how do the results read?
total luciferase, z-score: -0.294; total luciferase, % of control: 76; activity call: inactive

Which result is listed for SUCLA2 [SID160720845]?
total luciferase, z-score: -1.28; total luciferase, % of control: 56.4; activity call: inactive

Which result is listed for SUCLA2 [SID160720846]?
total luciferase, z-score: 0.304; total luciferase, % of control: 87.9; activity call: inactive

What did the screen give for SUCLA2 [SID160720847]?
total luciferase, z-score: -0.25; total luciferase, % of control: 76.9; activity call: inactive

With RBMXL2 [SID160738650], what does the deposit list?
total luciferase, z-score: -0.0522; total luciferase, % of control: 80.8; activity call: inactive

With RBMXL2 [SID160738651], what was measured?
total luciferase, z-score: -1.11; total luciferase, % of control: 59.8; activity call: inactive

With RBMXL2 [SID160738652], how do the results read?
total luciferase, z-score: 1.92; total luciferase, % of control: 120; activity call: inactive

For ACKR3 [SID160777911], what does the deposit list?
total luciferase, z-score: -0.351; total luciferase, % of control: 74.9; activity call: inactive

For ACKR3 [SID160778014], how do the results read?
total luciferase, z-score: -0.215; total luciferase, % of control: 77.6; activity call: inactive

What is on record for ACKR3 [SID160778113]?
total luciferase, z-score: -0.97; total luciferase, % of control: 62.6; activity call: inactive

Which result is listed for ZBTB45 [SID160752836]?
total luciferase, z-score: 2.85; total luciferase, % of control: 139; activity call: inactive

What is on record for ZBTB45 [SID160752837]?
total luciferase, z-score: -0.146; total luciferase, % of control: 79; activity call: inactive

For ZBTB45 [SID160752838], what was measured?
total luciferase, z-score: 0.725; total luciferase, % of control: 96.3; activity call: inactive

What is on record for BPY2 [SID160721433]?
total luciferase, z-score: -0.22; total luciferase, % of control: 77.5; activity call: inactive

For BPY2 [SID160721434], what was measured?
total luciferase, z-score: 1.47; total luciferase, % of control: 111; activity call: inactive

How did the screen score BPY2 [SID160721435]?
total luciferase, z-score: -0.0026; total luciferase, % of control: 81.8; activity call: inactive

For ZDHHC11 [SID160749586], what does the deposit list?
total luciferase, z-score: 1.73; total luciferase, % of control: 116; activity call: inactive

With ZDHHC11 [SID160749587], what does the deposit list?
total luciferase, z-score: 1.04; total luciferase, % of control: 103; activity call: inactive

Which result is listed for ZDHHC11 [SID160749589]?
total luciferase, z-score: 2.67; total luciferase, % of control: 135; activity call: inactive

For PCDHGA10 [SID160744779], how do the results read?
total luciferase, z-score: -0.364; total luciferase, % of control: 74.7; activity call: inactive

With PCDHGA10 [SID160744780], how do the results read?
total luciferase, z-score: -0.27; total luciferase, % of control: 76.5; activity call: inactive

With PCDHGA10 [SID160744781], what does the deposit list?
total luciferase, z-score: -0.769; total luciferase, % of control: 66.6; activity call: inactive

For NDUFAF6 [SID160757519], what was measured?
total luciferase, z-score: 0.155; total luciferase, % of control: 85; activity call: inactive

With NDUFAF6 [SID160757521], how do the results read?
total luciferase, z-score: 1.58; total luciferase, % of control: 113; activity call: inactive

For NDUFAF6 [SID160757522], what does the deposit list?
total luciferase, z-score: 1.24; total luciferase, % of control: 107; activity call: inactive

With GARIN4 [SID160758857], how do the results read?
total luciferase, z-score: 1.01; total luciferase, % of control: 102; activity call: inactive

With GARIN4 [SID160758858], how do the results read?
total luciferase, z-score: -0.666; total luciferase, % of control: 68.6; activity call: inactive

Which result is listed for GARIN4 [SID160758860]?
total luciferase, z-score: -0.14; total luciferase, % of control: 79.1; activity call: inactive

5 entries already listed, sorted by “total luciferase, z-score”, high to low:
ZDHHC11 [SID160749589] → total luciferase, z-score: 2.67; total luciferase, % of control: 135; activity call: inactive
ZDHHC11 [SID160749586] → total luciferase, z-score: 1.73; total luciferase, % of control: 116; activity call: inactive
ZDHHC11 [SID160749587] → total luciferase, z-score: 1.04; total luciferase, % of control: 103; activity call: inactive
PCDHGA10 [SID160744780] → total luciferase, z-score: -0.27; total luciferase, % of control: 76.5; activity call: inactive
PCDHGA10 [SID160744779] → total luciferase, z-score: -0.364; total luciferase, % of control: 74.7; activity call: inactive
